Results taken from patent US12234212B2, “Peptide conjugates of microtubule-targeting agents as therapeutics” (Cybrexa 3, Inc., priority 2019, dated 2025).
For at least one compound, name, drawing or mass did not settle the structure.

System: T1, Biotin-labeled human tubulin derived from HeLa cells (β-tubulin)
T1 construct: fused on or other part: Biotin label, used for capture on a streptavidin sensor chip
Assay: Kinetic analysis of conjugate binding (Biacore surface plasmon resonance)
Conditions: Biacore S200, 25° C.
Description: Binding experiments were performed using a Biacore S200 instrument. A Series S sensor chip with pre-immobilized streptavidin was conditioned with 1 M NaCl in 50 mM NaOH. Biotin-labeled human tubulin derived from HeLa cells was immobilized to the sensor chip at a concentration of 125 μg/mL in HBS-P+ buffer at a flow rate of 10 μl/min. A final 3000 RU (response units) of protein was directly immobilized to the chip. After tubulin immobilization, the sensor chip was washed with 50% isopropanol, 50 mM NaOH and 1 M NaCl and subsequently allowed to equilibrate in assay buffer for 4 hours. A streptavidin-biotin capture blank (reference FC) was used to monitor non-specific binding.
To collect kinetic binding data, Compound 5 diluted in assay buffer was injected over the flow cells at concentrations ranging from 100 μM to 0.048 μM and 50 μM to 0.024 μM, at a flow rate of 60 μL/minute and a temperature of 25° C. The complex was allowed to dissociate for 60 seconds. Binding of compound to tubulin was monitored in real time to obtain on (Ka) and off (Koff) rates. The affinity constant (KD) was calculated by steady state kinetics.

## COc1cc2cc(c1Cl)N(C)C(=O)C[C@H](OC(=O)[C@H](C)N(C)C(=O)CCC(C)(C)SSC[C@H](NC(=O)[C@H](Cc1c[nH]c3ccccc13)NC(=O)[C@H](CC(C)C)NC(=O)[C@H](CC(C)C)NC(=O)[C@H](CC(=O)O)NC(=O)[C@H](CC(C)C)NC(=O)[C@H](CC(C)C)NC(=O)[C@H](CC(C)C)NC(=O)[C@@H](NC(=O)[C@H](CC(=O)O)NC(=O)[C@@H](NC(=O)[C@@H]1CCCN1C(=O)[C@H](Cc1ccccc1)NC(=O)[C@H](CC(C)C)NC(=O)[C@H](CC(C)C)NC(=O)[C@H](CC(=O)O)NC(=O)[C@H](CC(C)C)NC(=O)[C@H](Cc1ccc(O)cc1)NC(=O)[C@H](C)NC(=O)[C@H](CCCNC(=N)N)NC(=O)[C@H](Cc1c[nH]c3ccccc13)NC(=O)[C@@H]1CCCN1C(=O)[C@H](CC(N)=O)NC(=O)[C@H](CCC(N)=O)NC(=O)[C@H](CC(=O)O)NC(=O)[C@H](CC(=O)O)NC(=O)[C@H](C)N)[C@@H](C)O)[C@@H](C)O)C(=O)NCC(=O)O)[C@]1(C)O[C@H]1[C@H](C)[C@@H]1C[C@@](O)(NC(=O)O1)[C@H](OC)/C=C/C=C(\C)C2 [Compound 5]
Immobilized tubulin, read-out: KD (affinity constant, steady state) for β-tubulin
  Kd: ~3.55 µM
Relative to free DM4
  on/off rates of binding to β-tubulin: slower on/off rates relative to free DM4
